These results are taken from publication PMC8790125.

The data set relates to Rae1 + Nup98 GLEBS. Nature of the data set: EMSA. The settings on record: recombinant protein. Background: Mobility shift assays separate free from complexed probe on a gel.

The exact form of at least one protein or probe is not confirmed.

Consider “UUUUUUUUUUUUUU [FAM-labeled 14-mer poly(U) ssRNA]”, for which the binding result is on record as “binds”.
